The list shows a part of the results.
Columns and labels:
Assay in all cases: log2 fold change, soluble protein after heating vs DMSO (PISA); higher = thermal stabilisation; K562 lysate, 10 uM; active = over 0.2 and 3.5 SD of the protein, either way, in both replicates (recomputed)
erlotinib = compound: C#Cc1cccc(Nc2ncnc3cc(OCCOC)c(OCCOC)cc23)c1 [erlotinib]
Outline: (§1)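 The values are log-two fold changes in thermal stability compared with solvent controls and come from duplicates. They were obtained by TMTpro 16plex LC-MS/MS, with channel sums equalised, on the supernatant after 21,000xg for 90 min. That supernatant came from crude K562 extract at 1 mg/mL protein treated with 10 μM compound for 30 min, heated for 3 min across 48°C-58°C, pooled and brought to 0.5% NP-40 at 4°C.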

Chains of the proteins cited; added tags and fusions are not shown. Lines headed by an entry give the natural chain unless they say otherwise; changes in a name come on top.
UniProt Q9H334: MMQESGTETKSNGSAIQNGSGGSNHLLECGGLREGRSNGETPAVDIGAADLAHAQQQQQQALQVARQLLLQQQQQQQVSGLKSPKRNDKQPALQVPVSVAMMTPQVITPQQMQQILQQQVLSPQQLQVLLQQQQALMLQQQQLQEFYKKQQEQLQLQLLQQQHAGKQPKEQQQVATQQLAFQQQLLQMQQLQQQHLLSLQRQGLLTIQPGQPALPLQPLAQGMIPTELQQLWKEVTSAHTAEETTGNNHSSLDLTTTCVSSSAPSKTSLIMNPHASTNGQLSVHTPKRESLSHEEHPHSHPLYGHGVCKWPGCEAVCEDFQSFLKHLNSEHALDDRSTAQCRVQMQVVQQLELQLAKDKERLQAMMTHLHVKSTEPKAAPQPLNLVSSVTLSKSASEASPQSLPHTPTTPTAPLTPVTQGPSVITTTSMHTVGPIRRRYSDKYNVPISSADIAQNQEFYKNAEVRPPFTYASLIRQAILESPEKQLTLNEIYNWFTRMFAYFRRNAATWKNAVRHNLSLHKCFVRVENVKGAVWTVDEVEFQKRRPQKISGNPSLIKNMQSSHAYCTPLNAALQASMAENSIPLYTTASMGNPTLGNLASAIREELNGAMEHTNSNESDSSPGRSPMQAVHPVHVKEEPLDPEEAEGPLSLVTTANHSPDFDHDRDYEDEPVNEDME
UniProt P09958, whole entry, looked up: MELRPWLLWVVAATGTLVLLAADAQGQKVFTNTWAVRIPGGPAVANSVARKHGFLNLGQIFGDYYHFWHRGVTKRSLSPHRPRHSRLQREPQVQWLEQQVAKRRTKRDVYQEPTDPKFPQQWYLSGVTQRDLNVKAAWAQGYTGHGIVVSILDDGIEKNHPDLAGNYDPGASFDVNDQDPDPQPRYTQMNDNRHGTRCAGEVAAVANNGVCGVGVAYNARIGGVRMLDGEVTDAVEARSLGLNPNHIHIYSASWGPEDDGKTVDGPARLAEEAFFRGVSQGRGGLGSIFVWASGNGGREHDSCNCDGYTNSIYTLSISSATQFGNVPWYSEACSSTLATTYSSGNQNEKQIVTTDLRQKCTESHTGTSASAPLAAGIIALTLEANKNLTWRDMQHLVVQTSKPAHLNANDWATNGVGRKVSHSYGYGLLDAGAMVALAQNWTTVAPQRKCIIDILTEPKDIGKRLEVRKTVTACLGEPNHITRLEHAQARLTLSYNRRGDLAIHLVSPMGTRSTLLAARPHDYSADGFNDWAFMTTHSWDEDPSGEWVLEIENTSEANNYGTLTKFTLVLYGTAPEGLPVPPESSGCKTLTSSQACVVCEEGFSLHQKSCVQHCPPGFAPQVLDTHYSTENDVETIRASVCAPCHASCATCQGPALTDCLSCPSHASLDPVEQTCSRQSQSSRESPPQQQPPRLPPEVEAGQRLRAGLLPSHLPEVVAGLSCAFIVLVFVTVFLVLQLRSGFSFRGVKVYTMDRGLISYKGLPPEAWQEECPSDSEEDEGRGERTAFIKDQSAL
UniProt Q9BYC5: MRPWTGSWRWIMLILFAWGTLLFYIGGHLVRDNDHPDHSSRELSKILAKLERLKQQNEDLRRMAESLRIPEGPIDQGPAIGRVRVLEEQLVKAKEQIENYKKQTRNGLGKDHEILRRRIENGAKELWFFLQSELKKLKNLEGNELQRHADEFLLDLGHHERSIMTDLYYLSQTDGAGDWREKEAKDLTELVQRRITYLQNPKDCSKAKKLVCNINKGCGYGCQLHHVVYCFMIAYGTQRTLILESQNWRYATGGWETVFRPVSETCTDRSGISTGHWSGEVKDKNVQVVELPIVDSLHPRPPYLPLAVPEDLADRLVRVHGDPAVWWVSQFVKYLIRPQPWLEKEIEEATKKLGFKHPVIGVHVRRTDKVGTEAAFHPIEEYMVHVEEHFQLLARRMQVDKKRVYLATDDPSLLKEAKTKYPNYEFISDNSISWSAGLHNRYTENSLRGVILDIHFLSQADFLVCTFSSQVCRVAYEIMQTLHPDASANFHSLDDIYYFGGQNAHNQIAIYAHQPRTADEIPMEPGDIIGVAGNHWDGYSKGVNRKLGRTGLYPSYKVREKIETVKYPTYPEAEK
UniProt P58012: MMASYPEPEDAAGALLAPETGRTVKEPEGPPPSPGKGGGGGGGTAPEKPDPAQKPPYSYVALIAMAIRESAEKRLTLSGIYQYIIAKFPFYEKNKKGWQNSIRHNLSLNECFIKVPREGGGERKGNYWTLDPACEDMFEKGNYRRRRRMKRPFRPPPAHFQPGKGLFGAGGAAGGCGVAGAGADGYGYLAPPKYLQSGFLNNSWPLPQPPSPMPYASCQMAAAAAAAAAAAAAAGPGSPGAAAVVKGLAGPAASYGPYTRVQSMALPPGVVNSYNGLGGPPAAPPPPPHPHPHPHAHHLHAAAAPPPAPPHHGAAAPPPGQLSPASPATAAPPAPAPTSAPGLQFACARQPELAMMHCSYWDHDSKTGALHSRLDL
UniProt Q3B7J2: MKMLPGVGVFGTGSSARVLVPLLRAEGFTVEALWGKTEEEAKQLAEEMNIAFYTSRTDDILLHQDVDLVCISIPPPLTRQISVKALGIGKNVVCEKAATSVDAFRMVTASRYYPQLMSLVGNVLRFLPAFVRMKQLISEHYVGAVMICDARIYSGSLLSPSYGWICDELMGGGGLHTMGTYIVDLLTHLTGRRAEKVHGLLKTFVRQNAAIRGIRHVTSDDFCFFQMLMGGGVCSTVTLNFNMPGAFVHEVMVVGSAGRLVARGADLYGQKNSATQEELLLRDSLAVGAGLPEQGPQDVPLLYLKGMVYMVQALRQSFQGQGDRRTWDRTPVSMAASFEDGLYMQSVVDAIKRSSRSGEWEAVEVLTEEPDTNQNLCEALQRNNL
UniProt Q5VTD9: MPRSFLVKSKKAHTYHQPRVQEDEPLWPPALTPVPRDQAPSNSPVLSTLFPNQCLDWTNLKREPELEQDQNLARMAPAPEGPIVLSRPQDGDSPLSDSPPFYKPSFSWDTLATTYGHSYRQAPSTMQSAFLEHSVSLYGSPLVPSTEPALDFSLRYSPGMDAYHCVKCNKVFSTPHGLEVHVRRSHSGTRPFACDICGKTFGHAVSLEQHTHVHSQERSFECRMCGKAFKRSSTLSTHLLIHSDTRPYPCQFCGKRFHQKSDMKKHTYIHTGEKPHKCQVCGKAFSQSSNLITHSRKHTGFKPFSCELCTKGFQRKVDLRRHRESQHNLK
UniProt Q8IWF2: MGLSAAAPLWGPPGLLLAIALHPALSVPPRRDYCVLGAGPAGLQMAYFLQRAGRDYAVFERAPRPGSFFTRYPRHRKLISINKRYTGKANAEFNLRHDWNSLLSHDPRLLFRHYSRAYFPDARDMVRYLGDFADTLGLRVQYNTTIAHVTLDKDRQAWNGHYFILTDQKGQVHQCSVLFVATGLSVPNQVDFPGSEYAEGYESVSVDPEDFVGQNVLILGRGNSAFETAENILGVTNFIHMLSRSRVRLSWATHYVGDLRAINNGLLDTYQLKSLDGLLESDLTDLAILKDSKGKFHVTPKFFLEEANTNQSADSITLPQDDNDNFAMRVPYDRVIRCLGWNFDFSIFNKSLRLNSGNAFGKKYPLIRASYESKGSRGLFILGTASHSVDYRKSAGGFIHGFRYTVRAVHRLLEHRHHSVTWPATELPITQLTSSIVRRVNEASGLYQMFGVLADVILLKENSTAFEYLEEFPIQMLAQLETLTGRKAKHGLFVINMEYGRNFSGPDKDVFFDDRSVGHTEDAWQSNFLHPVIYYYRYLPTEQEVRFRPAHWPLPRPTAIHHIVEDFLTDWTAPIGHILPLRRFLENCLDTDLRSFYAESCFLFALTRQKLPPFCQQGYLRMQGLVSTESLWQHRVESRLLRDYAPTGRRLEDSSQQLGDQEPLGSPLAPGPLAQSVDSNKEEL
UniProt Q495W5: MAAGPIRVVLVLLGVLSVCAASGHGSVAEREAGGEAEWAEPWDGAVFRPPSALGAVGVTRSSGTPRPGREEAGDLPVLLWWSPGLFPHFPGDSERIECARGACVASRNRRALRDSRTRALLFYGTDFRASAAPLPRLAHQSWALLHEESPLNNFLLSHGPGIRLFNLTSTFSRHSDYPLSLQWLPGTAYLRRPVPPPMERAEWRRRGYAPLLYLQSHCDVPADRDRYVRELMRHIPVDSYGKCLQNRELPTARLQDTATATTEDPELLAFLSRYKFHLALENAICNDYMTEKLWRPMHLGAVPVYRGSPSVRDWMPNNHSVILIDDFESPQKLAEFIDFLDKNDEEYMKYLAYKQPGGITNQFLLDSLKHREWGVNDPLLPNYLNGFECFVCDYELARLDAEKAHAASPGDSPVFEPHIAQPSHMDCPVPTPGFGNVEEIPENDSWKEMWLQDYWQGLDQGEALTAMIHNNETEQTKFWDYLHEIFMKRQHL
UniProt Q8NCW6: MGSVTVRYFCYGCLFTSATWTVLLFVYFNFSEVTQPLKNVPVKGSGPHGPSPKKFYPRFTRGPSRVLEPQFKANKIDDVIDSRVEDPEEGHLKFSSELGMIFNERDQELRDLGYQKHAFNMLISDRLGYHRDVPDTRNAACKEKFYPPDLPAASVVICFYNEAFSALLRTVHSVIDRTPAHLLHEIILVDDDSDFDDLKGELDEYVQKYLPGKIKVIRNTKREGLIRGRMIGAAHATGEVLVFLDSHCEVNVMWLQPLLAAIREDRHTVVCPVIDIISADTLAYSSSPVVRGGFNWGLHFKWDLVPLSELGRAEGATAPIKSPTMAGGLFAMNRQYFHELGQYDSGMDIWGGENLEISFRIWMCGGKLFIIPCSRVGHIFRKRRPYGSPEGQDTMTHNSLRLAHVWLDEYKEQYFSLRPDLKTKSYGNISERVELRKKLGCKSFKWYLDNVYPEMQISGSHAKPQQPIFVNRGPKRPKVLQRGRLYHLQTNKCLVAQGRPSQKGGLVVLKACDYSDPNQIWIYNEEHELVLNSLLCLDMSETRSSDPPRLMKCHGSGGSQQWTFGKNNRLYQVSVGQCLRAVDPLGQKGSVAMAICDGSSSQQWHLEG
UniProt Q68DX3: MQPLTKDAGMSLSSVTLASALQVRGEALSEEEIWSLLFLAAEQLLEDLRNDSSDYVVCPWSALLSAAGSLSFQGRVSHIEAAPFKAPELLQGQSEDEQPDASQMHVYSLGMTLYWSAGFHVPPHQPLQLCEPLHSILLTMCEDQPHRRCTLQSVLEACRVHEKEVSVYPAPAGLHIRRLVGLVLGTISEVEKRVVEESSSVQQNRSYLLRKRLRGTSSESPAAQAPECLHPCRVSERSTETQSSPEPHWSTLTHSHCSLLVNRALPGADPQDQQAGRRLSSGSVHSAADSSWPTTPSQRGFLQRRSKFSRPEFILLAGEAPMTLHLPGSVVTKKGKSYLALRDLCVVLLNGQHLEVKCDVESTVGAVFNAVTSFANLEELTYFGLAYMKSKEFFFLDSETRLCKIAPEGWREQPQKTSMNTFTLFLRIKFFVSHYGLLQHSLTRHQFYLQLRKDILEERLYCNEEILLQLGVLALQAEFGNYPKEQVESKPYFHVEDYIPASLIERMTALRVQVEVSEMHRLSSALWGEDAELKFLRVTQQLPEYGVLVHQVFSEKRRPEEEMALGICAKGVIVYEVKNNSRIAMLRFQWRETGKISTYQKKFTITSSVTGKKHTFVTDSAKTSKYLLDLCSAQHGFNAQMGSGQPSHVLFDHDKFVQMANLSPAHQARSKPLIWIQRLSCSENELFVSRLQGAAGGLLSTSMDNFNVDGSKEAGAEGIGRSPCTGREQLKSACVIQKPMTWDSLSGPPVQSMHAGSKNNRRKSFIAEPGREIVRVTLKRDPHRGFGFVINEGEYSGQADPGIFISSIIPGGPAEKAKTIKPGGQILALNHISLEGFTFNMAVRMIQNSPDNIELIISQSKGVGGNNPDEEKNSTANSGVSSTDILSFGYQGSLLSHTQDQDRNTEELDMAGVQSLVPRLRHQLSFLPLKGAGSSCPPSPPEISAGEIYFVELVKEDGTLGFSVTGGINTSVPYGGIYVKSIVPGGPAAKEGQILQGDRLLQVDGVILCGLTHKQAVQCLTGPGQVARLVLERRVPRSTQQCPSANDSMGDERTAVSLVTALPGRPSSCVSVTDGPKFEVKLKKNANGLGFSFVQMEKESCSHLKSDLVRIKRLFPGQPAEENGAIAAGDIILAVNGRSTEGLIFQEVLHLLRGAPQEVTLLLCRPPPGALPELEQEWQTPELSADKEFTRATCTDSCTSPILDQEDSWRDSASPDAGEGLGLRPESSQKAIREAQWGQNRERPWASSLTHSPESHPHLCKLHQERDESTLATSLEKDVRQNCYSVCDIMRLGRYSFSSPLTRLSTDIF
UniProt Q9NWZ8: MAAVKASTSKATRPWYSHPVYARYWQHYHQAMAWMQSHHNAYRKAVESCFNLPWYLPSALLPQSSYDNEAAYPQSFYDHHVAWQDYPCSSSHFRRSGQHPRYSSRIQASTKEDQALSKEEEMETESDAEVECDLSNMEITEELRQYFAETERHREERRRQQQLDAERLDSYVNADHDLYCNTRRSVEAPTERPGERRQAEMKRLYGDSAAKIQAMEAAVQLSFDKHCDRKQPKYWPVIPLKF

[1] = compound: C/C(=N\NC(=O)C1=CC(=CC=C1)S(=O)(=O)N2CCOCC2)/C3=C(C=CC(=C3)Cl)O
Outline: as §1

[2] = compound: C1=CC(=CC=C1C2=NC3=C(N2)C=C(C=C3)C(=O)N)OC4=CC=C(C=C4)Cl
Outline: as §1

[3] = compound: C1=CC2=C(C=CC(=C2)/C=C\3/C(=O)NC(=NCC4=CC=CS4)S3)N=C1
Outline: as §1

[4] = compound: C1=CC2=NC=CN=C2C=C1/C=C/3\C(=O)NC(=O)S3
Outline: as §1

[5] = compound: C1=CC=C(C=C1)C2=NC(=C(N2)C3=CC=NC=C3)C4=CC(=C(C=C4)Cl)O
Outline: as §1

[6] = compound: C1=CC=C2C(=C1)C3=NNC4=CC=CC(=C43)C2=O
Outline: as §1

[7] = compound: C1CCN(C1)C(=O)NC2=CC=CC(=C2)NC3=NC=C(C(=N3)NCCC4=CN=CN4)Br
Outline: as §1

[8] = compound: C1CN(CCC1(CC2=CC=C(C=C2)Cl)N)C3=NC=NC4=C3C=CN4
Outline: as §1

IRAK-1-4 Inhibitor I = compound: C1COCCN1CCN2C3=CC=CC=C3N=C2NC(=O)C4=CC(=CC=C4)[N+](=O)[O-] [IRAK-1-4 Inhibitor I]
Outline: as §1

ibrutinib = compound: C=CC(=O)N1CCC[C@@H](n2nc(-c3ccc(Oc4ccccc4)cc3)c3c(N)ncnc32)C1 [ibrutinib]
Outline: as §1

ralimetinib = compound: CC(C)(C)Cn1c(N)nc2ccc(-c3[nH]c(C(C)(C)C)nc3-c3ccc(F)cc3)nc21 [ralimetinib]
Outline: as §1

[9] = compound: CC(C)(O)CC(=O)NCCn1ccc2ncnc(Nc3ccc(Oc4cccc(C(F)(F)F)c4)c(Cl)c3)c21
Outline: as §1

[10] = compound: CC(C)C1=C2N=C(C=C(N2N=C1)NCC3=CC=CC=C3)NCCCCCCN
Outline: as §1

[11] = compound: CC1=C(C(CC(=O)N1)C2=CC=C(C=C2)C(F)(F)F)C(=O)NC3=C(C=C4C(=C3)C=NN4)F
Outline: as §1

[12] = compound: CC1=C(C2=C(C=C1)C(=O)C3=CC=CC=C3N2CCCN)C
Outline: as §1

[13] = compound: CC1=C(C=C(C=C1)NC(=O)C2=CC(=CC=C2)C(C)(C)C#N)NC3=CC4=C(C=C3)N=CN(C4=O)C
Outline: as §1

[14] = compound: CC1=C(C=C(C=C1)NC(=O)C2=CC(=CC=C2)N(C)C)NC(=O)C3=CC=C(C=C3)O
Outline: as §1

[15] = compound: CC(=O)c1cnc2ccc(-c3cc(Cl)c(O)c(Cl)c3)nc2c1N[C@H]1CC[C@H](CN(C)C)CC1
Outline: as §1

[16] = compound: CC1=CC=C(C=C1)SC2=C3C=C(SC3=CN=C2)C(=O)N
Outline: as §1

Measured: log2 fold change

FOXP1 (UniProt Q9H334)
inactive: erlotinib 0.053 | [1] -0.003 | [2] 0.025 | [3] 0.041 | [4] -0.023 | [5] 0.017 | [6] -0.124 | [7] 0.102 | [8] 0.062 | IRAK-1-4 Inhibitor I 0.005 | ibrutinib -0.065 | ralimetinib 0.079 | [9] -0.068 | [10] -0.001 | [11] 0.128 | [12] 0.028 | [13] -0.012 | [14] 0.015

FRMPD3 (UniProt Q5JV73)
inactive: erlotinib -0.043 | [1] 0.277 | [2] 0.269 | [3] 0.044 | [4] -0.063 | [5] -0.382 | [6] -0.162 | IRAK-1-4 Inhibitor I -0.085 | ibrutinib 0.005 | [15] -0.129 | ralimetinib 0.101 | [9] -0.026 | [10] 0.052 | [11] -0.174 | [14] -0.014 | [16] -0.069

FURIN (UniProt P09958)
inactive: erlotinib -0.005 | [1] -0.05 | [2] 0.028 | [3] 0.012 | [4] -0.091 | [5] -0.01 | [6] -0.092 | [7] 0.102 | [8] -0.012 | IRAK-1-4 Inhibitor I -0.027 | ibrutinib 0.086 | ralimetinib -0.082 | [9] -0.102 | [10] 0.015 | [11] 0.162 | [12] -0.056 | [13] -0.136 | [14] 0.028

FUT8 (UniProt Q9BYC5)
inactive: erlotinib 0.035 | [2] -0.058 | [4] -0.023 | [5] -0.057 | [7] 0.081 | [8] -0.013 | IRAK-1-4 Inhibitor I 0.073 | ibrutinib -0.075 | [15] 0.042 | ralimetinib -0.141 | [9] -0.259 | [10] -0.075 | [14] 0.111 | [16] 0.022

FOXL2 (UniProt P58012)
inactive: erlotinib 0.274 | [2] -0.129 | [4] -0.006 | [5] -0.085 | [7] -0.024 | [8] 0.187 | IRAK-1-4 Inhibitor I 0.026 | ibrutinib -0.074 | [15] -0.065 | ralimetinib 0.264 | [9] -0.095 | [10] 0.161 | [12] -0.023 | [14] 0.02 | [16] -0.035

GFOD2 (UniProt Q3B7J2)
inactive: erlotinib 0.022 | [1] -0.114 | [2] 0.203 | [3] -0.368 | [4] -0.051 | [5] 0.144 | [6] -0.095 | [7] -0.002 | [8] 0.108 | IRAK-1-4 Inhibitor I -0.069 | ibrutinib 0.045 | [15] -0.206 | ralimetinib -0.091 | [9] -0.01 | [10] 0 | [12] -0.079 | [14] 0.054 | [16] -0.076

GFI1B (UniProt Q5VTD9)
inactive: erlotinib -0.19 | [2] -0.133 | [5] 0.069 | IRAK-1-4 Inhibitor I 0.023 | [15] -0.184 | ralimetinib -0.07 | [9] 0.001 | [10] -0.172 | [11] -0.189 | [12] -0.122 | [13] -0.057 | [14] 0.07 | [16] -0.104

Reprinted from the listing (three entries):
FUT8 (UniProt Q9BYC5)
inactive: erlotinib 0.035 | [2] -0.058 | [4] -0.023 | [5] -0.057 | [7] 0.081 | [8] -0.013 | IRAK-1-4 Inhibitor I 0.073 | ibrutinib -0.075 | [15] 0.042 | ralimetinib -0.141 | [9] -0.259 | [10] -0.075 | [14] 0.111 | [16] 0.022

FOXL2 (UniProt P58012)
inactive: erlotinib 0.274 | [2] -0.129 | [4] -0.006 | [5] -0.085 | [7] -0.024 | [8] 0.187 | IRAK-1-4 Inhibitor I 0.026 | ibrutinib -0.074 | [15] -0.065 | ralimetinib 0.264 | [9] -0.095 | [10] 0.161 | [12] -0.023 | [14] 0.02 | [16] -0.035

GFOD2 (UniProt Q3B7J2)
inactive: erlotinib 0.022 | [1] -0.114 | [2] 0.203 | [3] -0.368 | [4] -0.051 | [5] 0.144 | [6] -0.095 | [7] -0.002 | [8] 0.108 | IRAK-1-4 Inhibitor I -0.069 | ibrutinib 0.045 | [15] -0.206 | ralimetinib -0.091 | [9] -0.01 | [10] 0 | [12] -0.079 | [14] 0.054 | [16] -0.076

Later entries:

FOXRED2 (UniProt Q8IWF2)
inactive: erlotinib -0.016 | [1] 0.073 | [2] -0.003 | [3] 0.027 | [5] 0.031 | [6] -0.066 | [7] -0.204 | [8] 0.002 | IRAK-1-4 Inhibitor I 0.055 | ralimetinib 0.114 | [9] 0.014 | [10] -0.174 | [11] 0.029 | [12] -0.049 | [13] -0.035 | [14] -0.011

FUT11 (UniProt Q495W5)
inactive: erlotinib -0.061 | [2] -0.026 | [4] -0.186 | [5] -0.077 | [7] -0.129 | [8] 0.075 | IRAK-1-4 Inhibitor I -0.019 | ibrutinib -0.172 | [15] 0.001 | ralimetinib 0.003 | [9] -0.011 | [10] 0.112 | [11] -0.082 | [13] -0.12 | [14] 0.02 | [16] -0.261

GALNT11 (UniProt Q8NCW6)
inactive: erlotinib -0.005 | [1] 0.089 | [2] -0.026 | [3] -0.087 | [5] -0.052 | [6] 0.053 | [7] 0.009 | [8] -0.057 | IRAK-1-4 Inhibitor I 0.072 | [15] 0.076 | ralimetinib -0.008 | [9] -0.101 | [10] 0.027 | [11] -0.036 | [12] -0.029 | [13] 0.072 | [14] -0.014 | [16] -0.072

FRMPD2 (UniProt Q68DX3)
inactive: erlotinib 0 | [1] 0.064 | [2] 0.114 | [3] -0.072 | [6] -0.092 | [7] -0.085 | [8] -0.056 | [15] -0.099 | [10] -0.337 | [11] -0.008 | [16] 0.009

GEMIN8 (UniProt Q9NWZ8)
inactive: erlotinib 0.004 | [1] 0.003 | [2] -0.004 | [3] 0.054 | [4] -0.003 | [5] -0.006 | [6] -0.006 | [7] -0.028 | [8] 0.395 | IRAK-1-4 Inhibitor I 0.046 | ibrutinib 0.056 | [15] -0.001 | ralimetinib -0.063 | [9] 0.048 | [10] -0.071 | [11] -0.048 | [13] 0.006 | [14] -0.036 | [16] 0.032

Source: the supplement of paper PMC10849652
